# Data reported in the supplement of paper PMC12819154, “High-throughput peptide-centric local stability assay extends protein–ligand identification to membrane proteins, tissues and bacteria” (Nature Structural & Molecular Biology, 2025).
# The chains behind the UniProt entries cited, without tags or fusion partners. Where a name states a change or a piece, a line headed by the entry shows the natural chain unless it says otherwise.
# UniProt P0A7D4: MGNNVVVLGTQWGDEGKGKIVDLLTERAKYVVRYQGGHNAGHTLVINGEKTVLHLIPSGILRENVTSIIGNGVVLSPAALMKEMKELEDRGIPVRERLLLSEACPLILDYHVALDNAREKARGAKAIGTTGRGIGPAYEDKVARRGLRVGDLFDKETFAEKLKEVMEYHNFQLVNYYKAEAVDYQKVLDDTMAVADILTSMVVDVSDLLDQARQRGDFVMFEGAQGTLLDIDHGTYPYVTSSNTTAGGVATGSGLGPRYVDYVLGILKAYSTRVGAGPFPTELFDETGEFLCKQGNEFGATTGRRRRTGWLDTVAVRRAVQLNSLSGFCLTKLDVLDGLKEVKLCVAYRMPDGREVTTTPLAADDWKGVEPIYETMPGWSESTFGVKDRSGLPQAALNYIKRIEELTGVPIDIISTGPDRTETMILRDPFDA
# UniProt P0A800, whole entry: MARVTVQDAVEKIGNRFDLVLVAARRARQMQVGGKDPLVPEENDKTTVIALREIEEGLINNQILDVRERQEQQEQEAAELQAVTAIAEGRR
# The other results are listed elsewhere or left out. Small differences around the control level are noise.
# Experiments:
# Test in all cases: log2 fold change of tryptic peptide abundance, ligand vs vehicle (limited proteolysis) (log2 ratio); higher = more trypsin-susceptible (destabilized)
# UniProt P0A703 = molecular target: T1, UniProt P0A703; settings: peptide sequence: LRVDTGDSLIVK; peptide start residue: 97; ligand concentration: 10 uM; sample: E. coli crude lysate
# T1 sequence (whole entry): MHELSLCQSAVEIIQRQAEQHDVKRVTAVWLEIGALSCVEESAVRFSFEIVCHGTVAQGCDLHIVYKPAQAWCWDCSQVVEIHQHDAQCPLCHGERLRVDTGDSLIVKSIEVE
# UniProt P0A7D4 = settings: peptide sequence: GAKAIGTTGR; peptide start residue: 123; ligand concentration: 10 uM; sample: E. coli crude lysate
# UniProt P0A7Y8 = molecular target: T2, UniProt P0A7Y8; settings: peptide sequence: LRQHELPAMDFVVVAKK; peptide start residue: 75; ligand concentration: 10 uM; sample: E. coli crude lysate
# T2 sequence (whole entry): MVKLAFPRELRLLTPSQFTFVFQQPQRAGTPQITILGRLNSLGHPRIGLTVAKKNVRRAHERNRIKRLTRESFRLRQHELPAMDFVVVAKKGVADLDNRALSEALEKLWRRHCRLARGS
# UniProt P0A800 = settings: peptide sequence: QMQVGGKDPLVPEENDK; peptide start residue: 29; ligand concentration: 10 uM; sample: E. coli crude lysate
# UniProt P0A8F8 = molecular target: T3, UniProt P0A8F8; settings: peptide sequence: YLHSDIDTVER; peptide start residue: 475; ligand concentration: 10 uM; sample: E. coli crude lysate
# T3 sequence (whole entry): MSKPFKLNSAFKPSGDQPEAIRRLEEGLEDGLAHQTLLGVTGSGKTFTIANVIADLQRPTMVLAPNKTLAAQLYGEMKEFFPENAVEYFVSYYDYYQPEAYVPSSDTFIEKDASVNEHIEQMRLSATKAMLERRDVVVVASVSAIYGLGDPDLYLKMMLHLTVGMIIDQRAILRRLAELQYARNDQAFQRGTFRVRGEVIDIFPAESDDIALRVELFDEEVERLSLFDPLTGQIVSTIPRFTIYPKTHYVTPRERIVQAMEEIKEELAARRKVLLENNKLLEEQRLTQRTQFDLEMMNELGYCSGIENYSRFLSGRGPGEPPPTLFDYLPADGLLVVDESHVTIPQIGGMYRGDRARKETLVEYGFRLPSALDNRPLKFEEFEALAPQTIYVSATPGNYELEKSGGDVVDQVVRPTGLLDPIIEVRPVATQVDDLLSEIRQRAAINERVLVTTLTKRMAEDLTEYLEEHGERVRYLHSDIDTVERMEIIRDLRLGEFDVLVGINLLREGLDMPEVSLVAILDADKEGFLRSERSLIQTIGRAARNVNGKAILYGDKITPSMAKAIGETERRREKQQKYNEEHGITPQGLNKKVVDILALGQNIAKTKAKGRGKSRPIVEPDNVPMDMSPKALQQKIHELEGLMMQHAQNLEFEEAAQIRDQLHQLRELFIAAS
# UniProt P0A8Y3 = molecular target: T4, UniProt P0A8Y3; settings: peptide sequence: KSFHMGEAFHQHER; peptide start residue: 36; ligand concentration: 10 uM; sample: E. coli crude lysate
# T4 sequence (whole entry): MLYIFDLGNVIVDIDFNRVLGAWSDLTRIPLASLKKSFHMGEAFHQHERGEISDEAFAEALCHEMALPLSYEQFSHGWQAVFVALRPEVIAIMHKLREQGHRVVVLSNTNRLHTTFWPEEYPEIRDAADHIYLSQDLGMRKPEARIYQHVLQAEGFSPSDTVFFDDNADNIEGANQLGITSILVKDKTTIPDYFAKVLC
# UniProt P0A908 = molecular target: T5, UniProt P0A908; settings: peptide sequence: AKDSGDHQMR; peptide start residue: 91; ligand concentration: 10 uM; sample: E. coli crude lysate
# T5 sequence (whole entry): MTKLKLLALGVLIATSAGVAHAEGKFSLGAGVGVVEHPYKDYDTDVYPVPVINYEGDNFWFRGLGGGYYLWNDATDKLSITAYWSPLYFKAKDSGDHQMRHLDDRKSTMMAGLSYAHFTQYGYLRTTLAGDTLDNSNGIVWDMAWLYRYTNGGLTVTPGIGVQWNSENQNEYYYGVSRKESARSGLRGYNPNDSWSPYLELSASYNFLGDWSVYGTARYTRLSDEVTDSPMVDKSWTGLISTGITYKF
# UniProt P0A915 = molecular target: T6, UniProt P0A915; settings: peptide sequence: LGGAQQHDSVR; peptide start residue: 188; ligand concentration: 10 uM; sample: E. coli crude lysate
# T6 sequence (whole entry): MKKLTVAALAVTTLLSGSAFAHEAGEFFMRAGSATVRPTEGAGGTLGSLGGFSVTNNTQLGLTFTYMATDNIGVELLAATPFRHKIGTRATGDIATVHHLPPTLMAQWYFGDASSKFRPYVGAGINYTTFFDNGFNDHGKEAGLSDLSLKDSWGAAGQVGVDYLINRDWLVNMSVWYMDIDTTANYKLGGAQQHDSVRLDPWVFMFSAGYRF
# UniProt P0A959 = molecular target: T7, UniProt P0A959; settings: peptide sequence: SSKLENVCYDIR; peptide start residue: 7; ligand concentration: 10 uM; sample: E. coli crude lysate
# T7 sequence (whole entry): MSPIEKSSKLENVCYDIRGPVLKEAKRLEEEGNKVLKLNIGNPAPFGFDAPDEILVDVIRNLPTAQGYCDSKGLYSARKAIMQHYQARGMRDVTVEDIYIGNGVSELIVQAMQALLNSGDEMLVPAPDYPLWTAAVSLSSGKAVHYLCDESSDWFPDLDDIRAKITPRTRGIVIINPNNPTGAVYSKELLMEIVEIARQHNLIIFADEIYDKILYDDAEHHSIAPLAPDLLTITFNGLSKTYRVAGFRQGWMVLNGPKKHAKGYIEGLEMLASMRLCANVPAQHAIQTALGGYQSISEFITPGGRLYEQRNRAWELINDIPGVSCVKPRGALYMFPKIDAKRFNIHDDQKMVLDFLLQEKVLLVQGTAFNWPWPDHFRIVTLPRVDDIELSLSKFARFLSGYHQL
# UniProt P0A9B6 = molecular target: T8, UniProt P0A9B6; settings: peptide sequence: VPTINVTAIDLSVTVKKPVK; peptide start residue: 237; ligand concentration: 10 uM; sample: E. coli crude lysate
# T8 sequence (whole entry): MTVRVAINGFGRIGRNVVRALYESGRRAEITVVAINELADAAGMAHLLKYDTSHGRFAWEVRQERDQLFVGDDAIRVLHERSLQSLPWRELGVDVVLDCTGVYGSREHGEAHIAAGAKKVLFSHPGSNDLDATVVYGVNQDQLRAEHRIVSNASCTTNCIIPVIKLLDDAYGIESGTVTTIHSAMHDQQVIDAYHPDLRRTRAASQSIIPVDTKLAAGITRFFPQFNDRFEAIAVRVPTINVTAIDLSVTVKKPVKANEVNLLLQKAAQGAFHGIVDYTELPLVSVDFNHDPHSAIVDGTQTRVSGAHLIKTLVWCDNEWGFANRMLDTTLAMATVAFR
# UniProt P0A9C3 = molecular target: T9, UniProt P0A9C3; settings: peptide sequence: GYDHAFLLQAK; peptide start residue: 243; ligand concentration: 10 uM; sample: E. coli crude lysate
# T9 sequence (whole entry): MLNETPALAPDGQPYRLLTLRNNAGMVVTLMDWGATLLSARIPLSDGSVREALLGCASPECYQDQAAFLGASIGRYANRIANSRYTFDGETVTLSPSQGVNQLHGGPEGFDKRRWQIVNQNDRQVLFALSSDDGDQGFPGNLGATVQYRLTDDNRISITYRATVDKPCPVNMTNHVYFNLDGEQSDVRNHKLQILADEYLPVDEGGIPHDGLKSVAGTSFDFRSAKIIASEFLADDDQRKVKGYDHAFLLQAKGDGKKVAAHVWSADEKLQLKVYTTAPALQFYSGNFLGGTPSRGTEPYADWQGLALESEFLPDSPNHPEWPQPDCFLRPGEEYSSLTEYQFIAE
# UniProt P0A9G4 = molecular target: T10, UniProt P0A9G4; settings: peptide sequence: HIEELQSMR; peptide start residue: 94; ligand concentration: 10 uM; sample: E. coli crude lysate
# T10 sequence (whole entry): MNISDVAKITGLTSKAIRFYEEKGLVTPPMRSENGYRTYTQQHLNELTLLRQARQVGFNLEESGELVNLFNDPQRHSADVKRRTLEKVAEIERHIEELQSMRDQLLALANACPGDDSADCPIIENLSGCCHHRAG
# UniProt P0A9I3 = molecular target: T11, UniProt P0A9I3; settings: peptide sequence: AAQLHIQITAHSPASADAANIEQAFK; peptide start residue: 138; ligand concentration: 10 uM; sample: E. coli crude lysate
# T11 sequence (whole entry): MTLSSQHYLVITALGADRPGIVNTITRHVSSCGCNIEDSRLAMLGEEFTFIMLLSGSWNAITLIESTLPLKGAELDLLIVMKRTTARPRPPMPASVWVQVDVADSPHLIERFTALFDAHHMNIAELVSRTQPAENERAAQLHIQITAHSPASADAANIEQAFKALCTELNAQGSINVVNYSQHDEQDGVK
# UniProt P0A9J4 = molecular target: T12, UniProt P0A9J4; settings: peptide sequence: ARAHGIAVPENTR; peptide start residue: 268; ligand concentration: 10 uM; sample: E. coli crude lysate
# T12 sequence (whole entry): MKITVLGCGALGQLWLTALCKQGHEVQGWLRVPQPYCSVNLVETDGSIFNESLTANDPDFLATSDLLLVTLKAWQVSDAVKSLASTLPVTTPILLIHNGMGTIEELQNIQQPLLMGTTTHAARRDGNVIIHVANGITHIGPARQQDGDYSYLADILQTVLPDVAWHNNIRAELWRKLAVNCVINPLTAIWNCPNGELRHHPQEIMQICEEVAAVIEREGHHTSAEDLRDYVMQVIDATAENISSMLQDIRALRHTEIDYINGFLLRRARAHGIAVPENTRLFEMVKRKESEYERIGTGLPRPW
# UniProt P0A9K7 = molecular target: T13, UniProt P0A9K7; settings: peptide sequence: RQPTASDLR; peptide start residue: 79; ligand concentration: 10 uM; sample: E. coli crude lysate
# T13 sequence (whole entry): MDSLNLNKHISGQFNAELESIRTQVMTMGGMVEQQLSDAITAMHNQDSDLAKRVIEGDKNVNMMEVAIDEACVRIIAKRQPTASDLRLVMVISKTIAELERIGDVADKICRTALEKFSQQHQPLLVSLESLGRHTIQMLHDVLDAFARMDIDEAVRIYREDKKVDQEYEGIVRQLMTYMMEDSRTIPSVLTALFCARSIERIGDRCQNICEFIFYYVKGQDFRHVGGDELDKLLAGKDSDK
# UniProt P0A9L3 = molecular target: T14, UniProt P0A9L3; settings: peptide sequence: ALREIHERADAVR; peptide start residue: 61; ligand concentration: 10 uM; sample: E. coli crude lysate
# T14 sequence (whole entry): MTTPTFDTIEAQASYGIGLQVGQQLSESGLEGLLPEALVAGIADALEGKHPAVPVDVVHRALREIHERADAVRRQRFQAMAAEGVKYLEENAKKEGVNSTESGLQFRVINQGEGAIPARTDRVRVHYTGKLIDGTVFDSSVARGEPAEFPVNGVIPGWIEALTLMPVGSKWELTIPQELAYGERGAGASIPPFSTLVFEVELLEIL
# UniProt P0A9L8 = molecular target: T15, UniProt P0A9L8; settings: peptide sequence: VLSEITSSLNK; peptide start residue: 79; ligand concentration: 10 uM; sample: E. coli crude lysate
# T15 sequence (whole entry): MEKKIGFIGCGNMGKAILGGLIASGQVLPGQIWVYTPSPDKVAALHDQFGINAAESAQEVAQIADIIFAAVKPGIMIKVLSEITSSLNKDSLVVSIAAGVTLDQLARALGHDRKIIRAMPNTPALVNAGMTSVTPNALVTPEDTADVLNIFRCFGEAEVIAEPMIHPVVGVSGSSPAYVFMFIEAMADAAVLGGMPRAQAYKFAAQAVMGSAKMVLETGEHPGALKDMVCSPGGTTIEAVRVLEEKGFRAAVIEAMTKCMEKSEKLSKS
# UniProt P0A9M8 = molecular target: T16, UniProt P0A9M8; settings: peptide sequence: LSVFKPIAQPRTGGDAPDQTTTIVR; peptide start residue: 34; ligand concentration: 10 uM; sample: E. coli crude lysate
# T16 sequence (whole entry): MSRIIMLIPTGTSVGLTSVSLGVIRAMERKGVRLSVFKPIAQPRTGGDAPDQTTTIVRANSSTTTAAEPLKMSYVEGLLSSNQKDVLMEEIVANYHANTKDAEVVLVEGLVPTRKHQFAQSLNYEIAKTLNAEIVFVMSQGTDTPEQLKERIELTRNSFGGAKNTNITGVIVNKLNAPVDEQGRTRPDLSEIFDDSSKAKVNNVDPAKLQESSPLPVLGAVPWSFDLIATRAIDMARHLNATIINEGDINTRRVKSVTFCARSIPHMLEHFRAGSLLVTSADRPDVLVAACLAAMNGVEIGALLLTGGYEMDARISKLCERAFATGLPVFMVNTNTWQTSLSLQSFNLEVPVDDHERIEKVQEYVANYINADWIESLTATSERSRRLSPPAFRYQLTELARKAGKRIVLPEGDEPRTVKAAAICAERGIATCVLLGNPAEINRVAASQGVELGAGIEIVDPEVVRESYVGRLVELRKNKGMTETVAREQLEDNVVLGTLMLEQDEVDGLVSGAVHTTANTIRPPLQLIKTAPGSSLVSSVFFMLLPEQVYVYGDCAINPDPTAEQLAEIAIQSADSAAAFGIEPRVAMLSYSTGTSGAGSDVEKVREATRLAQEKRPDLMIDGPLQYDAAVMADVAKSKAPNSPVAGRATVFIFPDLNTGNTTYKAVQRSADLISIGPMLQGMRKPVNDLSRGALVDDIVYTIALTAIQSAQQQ
compound,measurement,setting,value
CC1(C)S[C@@H]2[C@H](NC(=O)[C@H](N)c3ccccc3)C(=O)N2[C@H]1C(=O)O [ampicillin],log2 fold change,UniProt P0A703,-0.118
same,log2 fold change,UniProt P0A7D4,-0.725
same,log2 fold change,UniProt P0A7Y8,0.436
same,log2 fold change,UniProt P0A800,0.1
same,log2 fold change,UniProt P0A8F8,0.26
same,log2 fold change,UniProt P0A8Y3,0.56
same,log2 fold change,UniProt P0A908,0.102
same,log2 fold change,UniProt P0A915,0.211
same,log2 fold change,UniProt P0A959,0.215
same,log2 fold change,UniProt P0A9B6,0.391
same,log2 fold change,UniProt P0A9C3,0.507
same,log2 fold change,UniProt P0A9G4,0.0775
same,log2 fold change,UniProt P0A9I3,-0.337
same,log2 fold change,UniProt P0A9J4,-0.319
same,log2 fold change,UniProt P0A9K7,0.179
same,log2 fold change,UniProt P0A9L3,0.752
same,log2 fold change,UniProt P0A9L8,-0.417
same,log2 fold change,UniProt P0A9M8,-0.567

# Another view of part of the listing above.
compound | measurement | setting | value
CC1(C)S[C@@H]2[C@H](NC(=O)[C@H](N)c3ccccc3)C(=O)N2[C@H]1C(=O)O [ampicillin] | log2 fold change | UniProt P0A9L8 | -0.417
same | log2 fold change | UniProt P0A9M8 | -0.567
